Patent US20070148774A1
Results are given in words; binding and its absence hold for the method and conditions named.

Key:
Experiment in all cases: phage ELISA
[1] = target: ovalbumin
[2] = target: trypsin inhibitor
[3] = target: thyroglobulin
[4] = target: cytochrome C
[5] = target: glyceraldehyde-3-phosphate dehydrogenase
[6] = target: keyhole limpet haemocyanin (keyhole limpet)

Measured: binding

B1: lysozyme binder scFv from the unimmunized human library (VH13.1 / VL13.1), on phage (scFv, V domains shown)
VH: QVQLVQSGAEVKKPGQSLMISCQGSGYSFSNYWIGWVRQMPGKGLEWMGIIYPGDSDTRYSPSFQGQVTISADKSISTAYLHWSSLKASDTALYYCARLVGGTPAYWGQGT
VL: HVILTQPASVSGSPGQSITISCTGSSRDVGGYNYVSWYQHHPGKAPKLLISEVTNRPSGVSNRFSGSKSGNTASLTISGLQAEDEADYFCASYTSSKTYVFGG
no binding (tested: 100 ug/ml coating): [1] | [2] | [3] | [4] | [5] | [6]
